This is an account of results in PubChem BioAssay AID662 (National Center for Advancing Translational Sciences (NCATS), 2007).

Each structure is given as a SMILES string. Where “and” joins values, the source holds several entries; their conditions need not be identical. Equal values may be shown once. This is one part of the list. Further columns of the screen follow, without active or inactive calls. Compounds called inactive in the main read-out are mostly missing here. The note in brackets gives the kind of curve behind each potency; many fits are weak. Numbered stars: 1 amine (or outer) side, 2 acyl side, 3 side chain; on linkers, the order of the positions; unused ones are H or OH. Bridge positions count the residues as written; N and C are the ends. Square brackets hold non-standard residues; d marks the D form. Peptide text beside a SMILES is read from it. I, II: the chains in the order shown. Actinocin(9to1) = Cc1c2oc3c(C)ccc(C(=O)[*:1])c3nc-2c(C(=O)[*:2])c(N)c1=O; aThr = C[C@H](O)[C@H](N)C(=O)O; NMeV = CN[C@H](C(=O)O)C(C)C; Sar = CNCC(=O)O

For orientation: AC50 means the concentration giving half of the maximal activity seen.

A short description of this assay: Cell signaling CRE-BLA (Fsk stim). Particulars: CHO CRE-bla reporter (cAMP response element driving beta-lactamase), forskolin EC10, beta-lactamase ratio; measured here: 460 nm blue channel. The gist of the method:
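CHO CRE-bla cells, overnight plating in Opti-MEM with 0.5% dialyzed FBS; cpd titration + EC10 NKH 477, 3 h 37 °C; CCF4 2 h RT; ex 405/em 460 vs 530 ratio → %Activity, AC50.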
With `COc1ccc(-c2nnc(SCC(=O)Nc3sc4c(c3C#N)CCC4)n2CC2CCCO2)cc1` (centres undefined), the AC50 is 10 µM [rising, partial curve].
For `COc1cccc(NC(=O)CSc2nc3n[nH]c(C)c3c(=N)n2-c2cccc(OC)c2)c1`, the concentration at half-maximal activity (AC50) is 0.2 µM [rising, full curve, poor fit].
As to `CC1=C(CC(=O)O)c2cc(F)ccc2/C1=C\c1ccc(S(C)=O)cc1` (centres undefined), the AC50 was 12.6 µM [falling, single point].
Turning to `O=c1cnc2cnc(N3CCOCC3)nc2n1C1CC1`, the AC50 is 0.631 µM [rising, single point].
For `Cc1ccc(-n2c(=O)[nH]cc(C(=O)Nc3ccc4c(c3)OCCO4)c2=O)cc1`, the AC50 is 25.1 µM [rising, single point].
As for `COc1ccc(CCNS(=O)(=O)c2ccc3c(c2)CCN3C(=O)C2CC2)cc1OC`, the AC50 is 10 µM [rising, partial curve].
As to `O=C(O)c1ccc(N2CCCCCC2)c(N2C(=O)c3ccccc3C2=O)c1`, the AC50 was 0.398 µM [rising, full curve].
With `Cc1cccc(N2CCN(C(=O)COc3cc(=O)n(C)c4ccccc34)CC2)c1C`, the AC50 was 7.94 µM [rising, partial curve].
Regarding `N#CCCn1c(=O)c(-c2ccccc2)nc2cnc(OCc3ccccc3)nc21`, the AC50 was 12.6 µM [rising, single point].
Take `c1ccc(-n2cnnc2SCc2cn3ccsc3n2)cc1`: the AC50 was 3.16 µM [falling, single point].
`CCN1C(=O)C2(Nc3ccccc3-c3nc4ccccc4n32)c2cc(OC)ccc21` (centres undefined): the AC50 was 15.8 µM [rising, partial curve].
On to `Oc1ccccc1NCC(O)Cn1ccc2ccccc21` (centres undefined), for which the AC50 was 7.94 µM [falling, partial curve].
As for `C=CCn1c(SCC(=O)c2ccc(CNC(C)=O)o2)nc2scc(C3CC3)c2c1=O`, the concentration at half-maximal activity (AC50) is 10 µM [rising, partial curve].
As to `OCCNc1nc2ccccc2n1-c1ccccc1`, the AC50 was 0.00398 µM [falling, full curve, poor fit].
Take `CCOC(=O)c1ccccc1NC(=O)c1ccc(NS(C)(=O)=O)cc1`: the AC50 was 12.6 µM [rising, partial curve].
In the case of `CCC(Sc1nnnn1-c1ccccc1)C(=O)Nc1nc2ccccc2s1` (centres undefined), the AC50 is 10 µM [falling, partial curve].
With `Cc1nc2cncnc2n(Cc2ccc(F)cc2)c1=O`, the AC50 is 12.6 µM [rising, single point].
For the compound `COCCCNC(=O)Cn1cc(C(C)=O)c2ccccc21`, the AC50 was 0.00794 µM [falling, full curve].
Then `Cc1sc(NC(=O)c2cccs2)c(C(N)=O)c1C`, with 20 µM [rising, single point]; and `COc1cccc(Nc2ncc3nc(-c4cccs4)c(=O)n(CCC#N)c3n2)c1`, with 10 µM [rising, partial curve].
For `C=CCN1C(=O)/C(=C2\SC(N3CCOCC3)=NC2=O)c2cc(Br)ccc21`, the AC50 was 0.794 µM [rising, full curve].
With `COc1ccc(S(=O)(=O)NC2(C(F)(F)F)N=C3SCCN3C2=O)cc1` (centres undefined), the AC50 was 6.31 µM [rising, partial curve].
On to `O=C(Nc1ccccc1)c1cc([N+](=O)[O-])ccc1Cl`, for which the AC50 is 25.1 µM [falling, partial curve] and 15.8 µM [falling, partial curve, poor fit].
Take `O=C(Nc1cccnc1)c1noc2c1CCCC2`: the AC50 was 2 µM [rising, full curve, poor fit].
Then `O=c1cnc2cnc(OCc3ccccc3)nc2n1CCc1ccccc1`, with 25.1 µM [rising, partial curve]; and `CCN1CCCC1CN=Cc1c(O)n(-c2ccccc2)c(=O)c2ccccc12` (centres undefined), with 15.8 µM [rising, single point].
As for `CCOC(=O)c1sc(=S)n(C)c1N`, the AC50 was 10 µM [rising, single point].
As to `Cc1c(O)ccc2c3c(c(=O)oc12)CCC(C)C3` (centres undefined), the AC50 was 2.51 µM [rising, full curve].
As for `COc1ccc(C(=O)NCc2cn3c(C)csc3n2)cc1OC`, the AC50 was 10 µM [rising, partial curve].
Then `COc1ccc(OC)c2c(=S)c3ccccc3[nH]c12`, with 15.8 µM [rising, partial curve]; and `CCOc1ccccc1NC1c2ccccc2C(=O)N1c1cccnc1` (centres undefined), with 25.1 µM [falling, single point].
As for `Cc1cc(NC(=O)CCN2C(=O)C3C4C=CC(C4)C3C2=O)c2ccccc2n1` (centres undefined), the AC50 was 1.26 µM [falling, full curve].
As for `Cc1c2oc3c(C)ccc(C(=O)N[C@@H]4C(=O)N[C@@H](C(C)C)C(=O)N5CCC[C@@H]5C(=O)N(C)CC(=O)N(C)[C@@H](C(C)C)C(=O)O[C@H]4C)c3nc-2c(C(=O)N[C@@H]2C(=O)N[C@@H](C(C)C)C(=O)N3CCC[C@@H]3C(=O)N(C)CC(=O)N(C)[C@@H](C(C)C)C(=O)O[C@H]2C)c(N)c1=O` (I: [aThr]V[dP][Sar][NMeV] / II: [aThr]V[dP][Sar][NMeV]; ester I:1-I:C, II:1-II:C; linker I:N-II:N via Actinocin(9to1)), the AC50 is 0.1 µM [falling, full curve].
The value for `CCc1ccc(NC(=O)CSc2nnc(Cc3cccn3C)n2-c2ccc(OC)cc2)cc1` was 10 µM [falling, partial curve]; that for `Cc1c(C(=O)O)[nH]c2c1C(=O)CC(c1ccccc1)C2` (centres undefined) was 10 µM [rising, single point].
`CCc1ccc(NC(=O)Cn2c(SC)nc3ccccc32)cc1`: the AC50 is 0.00398 µM [falling, full curve, poor fit].
For the compound `O=C(c1ccccc1)c1nc[nH]c1C(=O)Nc1ccccc1`, the concentration at half-maximal activity (AC50) was 10 µM [rising, partial curve].
With `CC(C)OC(=O)c1cccnc1SCc1cc(=O)n2ccccc2n1`, the AC50 is 10 µM [rising, partial curve].
Turning to `COC(C)(C)[C@]12CC(O)(C(C)C)ON1[C@H]1CCCCC1N2O` (some centres undefined), the AC50 is 25.1 µM [falling, single point].
Turning to `CCC(C)n1nccc1NC(=O)C(C)OC(=O)c1cc2ccccc2[nH]1` (centres undefined), the AC50 was 3.98 µM [falling, partial curve].
The value for `CCOC(=O)N1CCC(N2CC34C=CC(O3)C(C(=O)Nc3ccc(OCC)cc3)C4C2=O)CC1` (centres undefined) was 10 µM [rising, single point]; that for `COC(=O)c1ccccc1NC(=O)COC(C)=O` was 7.94 µM [rising, partial curve, poor fit].
The value for `O=c1[nH]c2ccsc2c(=O)n1-c1ccc(F)cc1` was 0.398 µM [rising, partial curve]; that for `Cc1ccc(-n2ncc(C#N)c2/N=C/N2CCOCC2)cc1` was 3.16 µM [rising, full curve, poor fit].
As for `CCCOc1ccc(N2C(=O)CC(N3CCCC(C(=O)N4CCCC4)C3)C2=O)cc1` (centres undefined), the AC50 was 0.00316 µM [falling, full curve, poor fit].
For `Cc1nnc(NC(=O)C2(c3ccccc3)CCOCC2)s1`, the AC50 is 10 µM [rising, partial curve].
The value for `CCOc1ccc(C2=Nn3c(nnc3-c3ccccc3)SC2)cc1Cl` was 0.1 µM [rising, full curve, poor fit]; that for `CCCc1ccc(C(C)NC(=O)c2cnccn2)cc1` (centres undefined) was 0.1 µM [falling, partial curve, poor fit]; that for `Cn1c(=O)c2c(nc(NCc3ccco3)n2C)n(C)c1=O` was 25.1 µM [rising, single point].
In the case of `COc1ccccc1C(=O)NCCn1cc(SCC(=O)Nc2cc(C)on2)c2ccccc21`, the AC50 was 1.58 µM [rising, partial curve].
Then `Cc1cc(=O)[nH]c(SCc2nc3ncccn3c2Br)n1`, with 3.98 µM [falling, single point]; and `COc1ccc(Nc2nnc(Cc3ccc(Cl)cc3)c(=O)[nH]2)c(OC)c1`, with 0.1 µM [falling, partial curve, poor fit]; and `COC(=O)Cc1cc(=O)n(-c2nc3ccccc3[nH]2)[nH]1`, with 2 µM [falling, single point].
Regarding `Nc1nc(OCc2ccccc2)c2[nH]cnc2n1`, the AC50 is 25.1 µM [rising, partial curve].
As for `O=C(O)C1Nc2c(O)cccc2C2C=CCC12` (centres undefined), the AC50 was 15.8 µM [falling, partial curve].
As to `CCOC(=O)CCC(=O)Nc1ccccc1C(N)=O`, the AC50 was 0.00316 µM [falling, full curve, poor fit].
Then `COc1cccc(Cn2c(=O)c(-c3cc(F)cc(F)c3)nc3cncnc32)c1`, with 7.94 µM [rising, partial curve]; and `O=C(CCS(=O)(=O)c1cccc2nonc12)NCCc1ccccc1`, with 25.1 µM [falling, partial curve, poor fit]; and `CCCn1c(=S)[nH]c2cc(C(=O)N3CCN(c4ccccc4OC)CC3)ccc2c1=O`, with 2.51 µM [rising, single point].
Then `Cn1c(=O)[nH]c(=O)c2c1nc(Sc1nc3ccccc3s1)n2Cc1ccccc1`, with 10 µM [rising, single point].
As for `COc1nc(Nc2nc3ccccc3c(=O)[nH]2)nc2ccc(C)cc12`, the AC50 was 0.794 µM [rising, partial curve].
Then `CC(C)(C)CC(=O)N1CCC(c2nc3c(nnn3Cc3c(F)cccc3Cl)c(=O)[nH]2)CC1`, with 15.8 µM [rising, partial curve]; and `COc1ccc(CC(=O)OCC(=O)Nc2c(C)n(C)n(-c3ccccc3)c2=O)cc1`, with 25.1 µM [rising, single point]; and `C[C@@H](CCC[C@@H]1SC[C@H]2NC(=O)N[C@H]12)C(=O)O`, with 0.251 µM [rising, single point].
